The other results are listed elsewhere or left out.
Legend:
Test in all cases: log2 fold change, soluble protein after heating vs DMSO (PISA); higher = thermal stabilisation; K562 lysate, 10 uM; active = over 0.2 and 3.5 SD of the protein, either way, in both replicates (recomputed)
vemurafenib = compound: CCCS(=O)(=O)Nc1ccc(F)c(C(=O)c2c[nH]c3ncc(-c4ccc(Cl)cc4)cc23)c1F [vemurafenib]
Procedure, shortened: (§1)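 Values give the log-two fold change in thermal stability against solvent controls, from duplicates. Crude K562 extract at 1 mg/mL protein, made by dounce homogenisation in PBS pH 7.4 with 1 mM MgCl2, was treated with 10 μM compound for 30 min. After 3 min heating across 48°C-58°C, aliquots were pooled, adjusted to 0.5% NP-40 at 4°C and centrifuged at 21,000xg for 90 min. The supernatant was measured by TMTpro 16plex LC-MS/MS with channel sums equalised.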

The chains behind the UniProt entries cited, without tags or fusion partners. Where a name states a change or a piece, a line headed by the entry shows the natural chain unless it says otherwise.
UniProt P78540: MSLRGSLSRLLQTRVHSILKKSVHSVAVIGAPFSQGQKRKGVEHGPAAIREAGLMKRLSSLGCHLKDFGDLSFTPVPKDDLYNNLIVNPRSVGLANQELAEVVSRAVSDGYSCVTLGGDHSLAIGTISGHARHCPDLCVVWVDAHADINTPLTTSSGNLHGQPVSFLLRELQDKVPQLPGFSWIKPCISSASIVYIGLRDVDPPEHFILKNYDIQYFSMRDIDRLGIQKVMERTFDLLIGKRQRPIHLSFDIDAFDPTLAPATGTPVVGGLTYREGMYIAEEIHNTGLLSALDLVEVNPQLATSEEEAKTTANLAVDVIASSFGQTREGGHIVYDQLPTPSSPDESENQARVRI
UniProt Q8N6T3: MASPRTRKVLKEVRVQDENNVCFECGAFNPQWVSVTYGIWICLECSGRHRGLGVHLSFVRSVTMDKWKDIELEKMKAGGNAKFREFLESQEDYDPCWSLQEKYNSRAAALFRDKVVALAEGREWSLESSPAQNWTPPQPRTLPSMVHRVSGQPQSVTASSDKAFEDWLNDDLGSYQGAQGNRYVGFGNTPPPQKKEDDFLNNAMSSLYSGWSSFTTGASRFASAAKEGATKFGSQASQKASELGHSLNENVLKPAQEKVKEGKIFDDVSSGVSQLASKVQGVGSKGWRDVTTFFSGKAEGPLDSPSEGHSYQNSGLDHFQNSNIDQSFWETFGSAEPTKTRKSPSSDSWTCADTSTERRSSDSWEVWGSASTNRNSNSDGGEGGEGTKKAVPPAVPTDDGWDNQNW
UniProt Q66PJ3: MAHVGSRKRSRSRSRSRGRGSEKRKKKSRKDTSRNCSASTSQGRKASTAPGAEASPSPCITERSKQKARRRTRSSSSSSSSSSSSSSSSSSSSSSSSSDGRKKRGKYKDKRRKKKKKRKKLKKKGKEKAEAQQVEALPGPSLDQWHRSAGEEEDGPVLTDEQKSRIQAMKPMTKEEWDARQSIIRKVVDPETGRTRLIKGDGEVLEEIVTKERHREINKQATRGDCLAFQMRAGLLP
UniProt Q9Y2Y0: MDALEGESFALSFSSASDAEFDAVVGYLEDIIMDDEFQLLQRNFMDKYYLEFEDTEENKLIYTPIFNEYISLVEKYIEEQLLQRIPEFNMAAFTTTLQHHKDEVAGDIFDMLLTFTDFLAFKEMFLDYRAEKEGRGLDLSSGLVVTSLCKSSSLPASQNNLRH
UniProt P04114: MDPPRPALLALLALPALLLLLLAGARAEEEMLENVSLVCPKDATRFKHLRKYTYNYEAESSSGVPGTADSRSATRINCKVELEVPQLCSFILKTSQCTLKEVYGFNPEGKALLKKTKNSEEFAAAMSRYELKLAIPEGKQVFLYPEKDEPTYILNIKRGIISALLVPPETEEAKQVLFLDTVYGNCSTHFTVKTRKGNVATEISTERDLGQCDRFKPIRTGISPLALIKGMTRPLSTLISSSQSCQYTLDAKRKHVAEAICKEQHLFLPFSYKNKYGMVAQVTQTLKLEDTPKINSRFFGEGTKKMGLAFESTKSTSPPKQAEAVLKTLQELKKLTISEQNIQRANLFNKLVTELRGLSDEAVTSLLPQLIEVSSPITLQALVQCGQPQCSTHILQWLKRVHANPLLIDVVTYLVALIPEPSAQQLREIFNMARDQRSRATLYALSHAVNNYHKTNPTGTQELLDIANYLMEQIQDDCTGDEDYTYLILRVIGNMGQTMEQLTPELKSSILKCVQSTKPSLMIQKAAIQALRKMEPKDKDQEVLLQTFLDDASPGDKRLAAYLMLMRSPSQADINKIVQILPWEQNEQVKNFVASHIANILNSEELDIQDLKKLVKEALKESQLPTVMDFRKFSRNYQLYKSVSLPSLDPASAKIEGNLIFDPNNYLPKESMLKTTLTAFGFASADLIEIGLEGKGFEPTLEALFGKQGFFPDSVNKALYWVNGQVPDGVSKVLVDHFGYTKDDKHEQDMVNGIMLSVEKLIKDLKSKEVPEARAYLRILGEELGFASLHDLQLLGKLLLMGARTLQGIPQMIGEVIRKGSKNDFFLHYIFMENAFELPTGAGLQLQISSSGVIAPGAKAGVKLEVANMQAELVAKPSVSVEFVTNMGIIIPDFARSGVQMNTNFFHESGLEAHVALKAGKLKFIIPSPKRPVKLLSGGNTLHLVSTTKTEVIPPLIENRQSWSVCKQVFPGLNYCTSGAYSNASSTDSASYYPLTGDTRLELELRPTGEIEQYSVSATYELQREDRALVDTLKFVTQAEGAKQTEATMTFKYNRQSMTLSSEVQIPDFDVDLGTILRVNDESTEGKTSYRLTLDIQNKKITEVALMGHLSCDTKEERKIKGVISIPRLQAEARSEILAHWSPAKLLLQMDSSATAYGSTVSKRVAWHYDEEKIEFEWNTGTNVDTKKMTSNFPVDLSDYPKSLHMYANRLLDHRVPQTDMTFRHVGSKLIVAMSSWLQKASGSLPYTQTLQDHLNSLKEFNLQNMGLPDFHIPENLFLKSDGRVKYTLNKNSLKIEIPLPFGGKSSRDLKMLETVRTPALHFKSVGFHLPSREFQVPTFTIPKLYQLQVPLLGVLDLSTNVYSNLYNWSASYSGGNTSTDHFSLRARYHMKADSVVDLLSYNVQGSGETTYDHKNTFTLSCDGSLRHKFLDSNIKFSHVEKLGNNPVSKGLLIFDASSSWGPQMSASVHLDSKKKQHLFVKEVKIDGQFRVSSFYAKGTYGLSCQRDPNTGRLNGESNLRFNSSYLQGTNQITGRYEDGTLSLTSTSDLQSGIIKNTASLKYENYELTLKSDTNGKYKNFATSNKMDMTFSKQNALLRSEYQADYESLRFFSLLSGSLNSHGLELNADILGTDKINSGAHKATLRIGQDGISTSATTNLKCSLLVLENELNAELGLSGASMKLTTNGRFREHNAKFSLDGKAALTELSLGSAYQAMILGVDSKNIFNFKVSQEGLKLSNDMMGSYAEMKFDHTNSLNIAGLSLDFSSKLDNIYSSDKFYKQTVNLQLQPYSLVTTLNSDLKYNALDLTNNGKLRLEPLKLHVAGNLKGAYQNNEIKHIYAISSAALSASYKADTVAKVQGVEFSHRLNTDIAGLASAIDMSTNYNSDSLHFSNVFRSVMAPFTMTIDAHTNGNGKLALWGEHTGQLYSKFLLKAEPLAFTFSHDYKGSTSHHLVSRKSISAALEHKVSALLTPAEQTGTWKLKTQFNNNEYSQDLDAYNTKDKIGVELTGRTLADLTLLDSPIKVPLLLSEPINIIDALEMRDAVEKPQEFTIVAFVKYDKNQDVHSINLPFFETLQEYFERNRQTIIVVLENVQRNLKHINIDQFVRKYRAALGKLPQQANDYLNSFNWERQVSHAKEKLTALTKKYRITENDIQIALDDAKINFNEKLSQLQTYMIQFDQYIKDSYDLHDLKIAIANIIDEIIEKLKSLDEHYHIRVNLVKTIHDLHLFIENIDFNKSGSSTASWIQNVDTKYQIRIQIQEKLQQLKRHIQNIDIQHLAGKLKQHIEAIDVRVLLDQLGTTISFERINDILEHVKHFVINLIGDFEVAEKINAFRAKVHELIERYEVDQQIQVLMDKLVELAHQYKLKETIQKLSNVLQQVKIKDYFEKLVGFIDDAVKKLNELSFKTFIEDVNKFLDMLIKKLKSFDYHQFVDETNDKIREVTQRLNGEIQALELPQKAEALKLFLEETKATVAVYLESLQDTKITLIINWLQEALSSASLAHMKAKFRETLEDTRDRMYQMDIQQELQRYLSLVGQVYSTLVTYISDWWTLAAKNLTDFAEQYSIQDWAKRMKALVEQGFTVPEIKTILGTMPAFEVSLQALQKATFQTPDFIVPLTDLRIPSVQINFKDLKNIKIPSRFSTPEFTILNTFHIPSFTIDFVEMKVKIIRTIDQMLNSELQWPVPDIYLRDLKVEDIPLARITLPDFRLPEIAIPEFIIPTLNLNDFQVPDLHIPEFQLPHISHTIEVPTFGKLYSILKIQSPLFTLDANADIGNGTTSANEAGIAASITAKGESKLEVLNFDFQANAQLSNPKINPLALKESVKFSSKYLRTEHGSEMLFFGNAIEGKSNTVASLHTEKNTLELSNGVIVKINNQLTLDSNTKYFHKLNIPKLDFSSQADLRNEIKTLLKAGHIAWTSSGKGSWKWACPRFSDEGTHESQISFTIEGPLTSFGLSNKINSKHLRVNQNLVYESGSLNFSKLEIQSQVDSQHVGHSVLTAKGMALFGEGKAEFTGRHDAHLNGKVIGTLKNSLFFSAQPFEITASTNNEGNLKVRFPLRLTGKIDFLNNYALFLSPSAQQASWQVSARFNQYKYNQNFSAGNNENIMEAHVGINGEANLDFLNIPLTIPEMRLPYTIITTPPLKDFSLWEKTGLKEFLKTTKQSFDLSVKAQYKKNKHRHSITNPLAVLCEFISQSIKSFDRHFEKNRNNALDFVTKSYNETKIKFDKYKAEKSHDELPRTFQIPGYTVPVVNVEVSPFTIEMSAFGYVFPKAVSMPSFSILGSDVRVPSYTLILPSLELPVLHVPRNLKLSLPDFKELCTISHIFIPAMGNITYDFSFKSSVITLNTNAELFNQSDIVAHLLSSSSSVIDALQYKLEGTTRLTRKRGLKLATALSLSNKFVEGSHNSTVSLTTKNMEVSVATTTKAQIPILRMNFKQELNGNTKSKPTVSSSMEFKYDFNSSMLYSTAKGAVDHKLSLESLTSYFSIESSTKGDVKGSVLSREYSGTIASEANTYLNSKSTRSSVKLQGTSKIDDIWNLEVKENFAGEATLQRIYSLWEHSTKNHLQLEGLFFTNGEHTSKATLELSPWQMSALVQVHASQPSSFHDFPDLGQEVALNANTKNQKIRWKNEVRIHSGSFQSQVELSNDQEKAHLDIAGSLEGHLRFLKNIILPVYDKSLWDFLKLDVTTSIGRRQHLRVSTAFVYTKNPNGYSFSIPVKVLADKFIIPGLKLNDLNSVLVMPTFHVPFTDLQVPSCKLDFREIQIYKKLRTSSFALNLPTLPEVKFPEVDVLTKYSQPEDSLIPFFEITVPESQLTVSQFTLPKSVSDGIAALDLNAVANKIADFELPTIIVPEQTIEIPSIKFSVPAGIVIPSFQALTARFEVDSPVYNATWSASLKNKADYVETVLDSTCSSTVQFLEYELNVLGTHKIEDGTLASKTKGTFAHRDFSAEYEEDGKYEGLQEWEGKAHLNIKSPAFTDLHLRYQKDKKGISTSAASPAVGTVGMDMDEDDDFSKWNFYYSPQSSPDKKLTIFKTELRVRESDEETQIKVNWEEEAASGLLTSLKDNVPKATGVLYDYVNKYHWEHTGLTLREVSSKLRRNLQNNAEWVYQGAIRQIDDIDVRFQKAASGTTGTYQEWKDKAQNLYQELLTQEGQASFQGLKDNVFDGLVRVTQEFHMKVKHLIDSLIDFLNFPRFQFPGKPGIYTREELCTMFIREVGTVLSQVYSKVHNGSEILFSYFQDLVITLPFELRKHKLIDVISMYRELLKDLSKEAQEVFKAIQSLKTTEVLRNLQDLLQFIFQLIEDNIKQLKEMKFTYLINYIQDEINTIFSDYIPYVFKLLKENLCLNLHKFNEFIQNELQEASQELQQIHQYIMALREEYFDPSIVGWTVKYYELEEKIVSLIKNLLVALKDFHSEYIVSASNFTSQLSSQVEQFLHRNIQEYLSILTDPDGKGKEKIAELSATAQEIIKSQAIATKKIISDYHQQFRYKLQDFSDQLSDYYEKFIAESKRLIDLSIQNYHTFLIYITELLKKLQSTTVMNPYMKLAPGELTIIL
UniProt Q13795: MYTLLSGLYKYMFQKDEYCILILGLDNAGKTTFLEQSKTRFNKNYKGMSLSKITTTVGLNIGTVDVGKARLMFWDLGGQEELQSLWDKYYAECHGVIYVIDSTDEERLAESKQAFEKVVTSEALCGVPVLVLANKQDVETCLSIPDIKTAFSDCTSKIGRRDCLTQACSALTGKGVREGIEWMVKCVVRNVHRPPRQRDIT
UniProt P15848: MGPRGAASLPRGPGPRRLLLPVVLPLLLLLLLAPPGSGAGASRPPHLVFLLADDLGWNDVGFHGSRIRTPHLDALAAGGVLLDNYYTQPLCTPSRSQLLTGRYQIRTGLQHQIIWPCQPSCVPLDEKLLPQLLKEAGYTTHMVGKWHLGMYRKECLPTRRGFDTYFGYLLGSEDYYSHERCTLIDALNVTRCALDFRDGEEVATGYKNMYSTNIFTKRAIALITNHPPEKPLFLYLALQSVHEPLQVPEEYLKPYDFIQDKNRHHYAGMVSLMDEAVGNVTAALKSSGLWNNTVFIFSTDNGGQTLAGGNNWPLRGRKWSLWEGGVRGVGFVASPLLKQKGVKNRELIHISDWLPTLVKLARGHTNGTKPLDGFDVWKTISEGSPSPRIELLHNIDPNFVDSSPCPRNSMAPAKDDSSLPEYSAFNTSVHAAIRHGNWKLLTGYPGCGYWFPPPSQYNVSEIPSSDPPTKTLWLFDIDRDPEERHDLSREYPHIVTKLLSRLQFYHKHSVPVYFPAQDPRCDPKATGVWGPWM

[1] = compound: CCCS(=O)(=O)Nc1ccc(F)c(C(=O)c2c[nH]c3ncc(Cl)cc23)c1F
Procedure, shortened: as §1

barasertib = compound: CCN(CCCOc1ccc2c(Nc3cc(CC(=O)Nc4cccc(F)c4)[nH]n3)ncnc2c1)CCOP(=O)(O)O [barasertib]
Procedure, shortened: as §1

[2] = compound: CC[C@@H]1C(=O)N(C)c2cnc(Nc3ccc(C(=O)NC4CCN(C)CC4)cc3OC)nc2N1C1CCCC1
Procedure, shortened: as §1

volasertib = compound: CC[C@@H]1C(=O)N(C)c2cnc(Nc3ccc(C(=O)N[C@H]4CC[C@H](N5CCN(CC6CC6)CC5)CC4)cc3OC)nc2N1C(C)C [volasertib]
Procedure, shortened: as §1

[3] = compound: CCn1c(C(=O)N(C2CC2)C2CC2)cc2c3c(ncn3C)c(Nc3cc(C)n(C)n3)nc21
Procedure, shortened: as §1

[4] = compound: CCn1cc(-c2ccnc3[nH]c(-c4cccc(CN(C)C)c4)cc23)c(-c2ccc(NC(=O)N(C)C)cc2)n1
Procedure, shortened: as §1

[5] = compound: CN1CCC(CNc2ccc3ncc(-c4cccc(OC(F)(F)F)c4)n3n2)CC1
Procedure, shortened: as §1

saracatinib = compound: CN1CCN(CCOc2cc(OC3CCOCC3)c3c(Nc4c(Cl)ccc5c4OCO5)ncnc3c2)CC1 [saracatinib]
Procedure, shortened: as §1

sotrastaurin = compound: CN1CCN(c2nc(C3=C(c4c[nH]c5ccccc45)C(=O)NC3=O)c3ccccc3n2)CC1 [sotrastaurin]
Procedure, shortened: as §1

alvocidib = compound: CN1CC[C@H](c2c(O)cc(O)c3c(=O)cc(-c4ccccc4Cl)oc23)[C@H](O)C1 [alvocidib]
Procedure, shortened: as §1

Tubastatin A = compound: CN1CCc2c(c3ccccc3n2Cc2ccc(C(=O)NO)cc2)C1 [Tubastatin A]
Procedure, shortened: as §1

[6] = compound: CNC(=O)C1=CC=CC=C1NC2=NC(=NC=C2Cl)NC3=C(C=C(C=C3)N4CCOCC4)OC
Procedure, shortened: as §1

defactinib = compound: CNC(=O)c1ccc(Nc2ncc(C(F)(F)F)c(NCc3nccnc3N(C)S(C)(=O)=O)n2)cc1 [defactinib]
Procedure, shortened: as §1

[7] = compound: CNc1nc(-c2ccc3c(N)n[nH]c3c2)cc(N2C[C@@H](C(=O)NC3CCCCC3)CC[C@H]2C)n1
Procedure, shortened: as §1

encorafenib = compound: COC(=O)N[C@@H](C)CNc1nccc(-c2cn(C(C)C)nc2-c2cc(Cl)cc(NS(C)(=O)=O)c2F)n1 [encorafenib]
Procedure, shortened: as §1

[8] = compound: COC(=O)[C@H](CCSC)NC(=O)C1=C(C=C(C=C1)NC[C@H](CS)N)C2=CC=CC=C2
Procedure, shortened: as §1

alisertib = compound: COc1cc(Nc2ncc3c(n2)-c2ccc(Cl)cc2C(c2c(F)cccc2OC)=NC3)ccc1C(=O)O [alisertib]
Procedure, shortened: as §1

[9] = compound: COc1cc2nc(-c3cc(F)ccc3O)nc(N[C@@H]3CNC[C@H]3C(C)(C)O)c2cc1OC
Procedure, shortened: as §1

gefitinib = compound: COc1cc2ncnc(Nc3ccc(F)c(Cl)c3)c2cc1OCCCN1CCOCC1 [gefitinib]
Procedure, shortened: as §1

Measured: log2 fold change

ARRB1 (UniProt P49407)
inactive: vemurafenib 0.042 | [1] 0 | barasertib -0.02 | [2] 0 | volasertib 0.002 | [3] -0.015 | [4] -0.06 | [5] 0.04 | saracatinib -0.005 | sotrastaurin 0.001 | alvocidib -0.006 | Tubastatin A 0.04 | [6] -0.012 | defactinib 0.004 | [7] 0.044 | encorafenib -0.003 | [8] -0.045 | alisertib 0.019 | [9] 0.002 | gefitinib 0

ARG2 (UniProt P78540)
inactive: vemurafenib 0.008 | [1] 0.008 | barasertib 0.004 | [2] 0.045 | volasertib 0.041 | [3] -0.005 | [4] -0.036 | [5] 0.066 | saracatinib -0.04 | sotrastaurin -0.009 | alvocidib 0.009 | Tubastatin A 0.099 | [6] -0.025 | defactinib -0.081 | [7] 0.047 | encorafenib -0.022 | [8] -0.052 | alisertib 0.037 | [9] 0.009 | gefitinib 0.064

ARFGAP1 (UniProt Q8N6T3)
inactive: vemurafenib 0.063 | [1] -0.01 | barasertib 0.225 | [2] 0.204 | volasertib -0.02 | [3] 0.171 | [4] 0.001 | [5] 0.029 | saracatinib 0.056 | sotrastaurin -0.07 | alvocidib -0.001 | Tubastatin A -0.008 | [6] 0.105 | defactinib 0.115 | [7] 0.025 | encorafenib 0.355 | [8] -0.054 | alisertib 0.245 | [9] 0.097 | gefitinib 0.209

ARL6IP4 (UniProt Q66PJ3)
inactive: vemurafenib 0.19 | [1] 0.012 | barasertib -0.002 | [2] 0.044 | volasertib 0.049 | [3] -0.064 | [4] 0.011 | [5] 0.002 | saracatinib 0.043 | sotrastaurin 0.012 | alvocidib -0.045 | Tubastatin A 0.034 | [6] 0.082 | defactinib 0.026 | [7] 0.077 | encorafenib 0.044 | [8] -0.016 | alisertib -0.039 | [9] 0.005 | gefitinib 0.015

ARL2BP (UniProt Q9Y2Y0)
inactive: vemurafenib 0.014 | [1] 0.005 | barasertib -0.019 | [2] 0.005 | volasertib -0.005 | [3] 0.019 | [4] -0.167 | [5] 0.035 | saracatinib -0.047 | sotrastaurin 0.067 | alvocidib -0.022 | Tubastatin A 0.018 | [6] 0.029 | defactinib -0.036 | [7] 0.052 | encorafenib 0.01 | [8] -0.048 | alisertib -0.019 | [9] -0.024 | gefitinib 0.007

APOB (UniProt P04114)
active: [4] -0.224
inactive: vemurafenib -0.006 | [1] 0.039 | barasertib 0.03 | [2] -0.009 | volasertib 0.026 | [3] -0.189 | [5] 0.092 | saracatinib 0.029 | sotrastaurin 0.024 | alvocidib -0.078 | Tubastatin A 0.099 | [6] -0.021 | defactinib -0.04 | [7] 0.264 | encorafenib -0.008 | [8] 0.003 | alisertib -0.024 | [9] 0.023 | gefitinib 0.014

ARFRP1 (UniProt Q13795)
inactive: vemurafenib 0.063 | [1] 0.094 | barasertib 0.024 | [2] 0.116 | volasertib -0.06 | [3] -0.022 | [4] 0.076 | [5] -0.06 | saracatinib 0.051 | sotrastaurin 0.047 | alvocidib -0.037 | Tubastatin A 0.05 | [6] 0.064 | defactinib -0.031 | [7] 0.122 | encorafenib 0.013 | [8] 0.061 | alisertib 0.07 | [9] 0.028 | gefitinib 0.006

ARSB (UniProt P15848)
inactive: vemurafenib 0.061 | [1] 0.014 | barasertib 0.079 | [2] -0.001 | volasertib 0.004 | [3] 0.035 | [4] -0.139 | [5] -0.013 | saracatinib 0.023 | sotrastaurin -0.001 | alvocidib 0.143 | Tubastatin A -0.018 | [6] -0.044 | defactinib 0.046 | [7] 0.027 | encorafenib 0.012 | [8] -0.067 | alisertib 0.045 | [9] 0.084 | gefitinib 0.116

Reference: the supplement of paper PMC10849652
